Measured values from paper PMC11686847.
Like-named read-outs stand apart in the source and are kept apart here. These are yes or no findings as the source states them, for the method shown. In cells and extracts the contact can be indirect. These calls come from enrichment with a bait or labelling near it, and not all partners need be listed. Sequences can lack the tags named with a protein.

The chains behind the UniProt entries cited, without tags or fusion partners.
UniProt Q9UJX5: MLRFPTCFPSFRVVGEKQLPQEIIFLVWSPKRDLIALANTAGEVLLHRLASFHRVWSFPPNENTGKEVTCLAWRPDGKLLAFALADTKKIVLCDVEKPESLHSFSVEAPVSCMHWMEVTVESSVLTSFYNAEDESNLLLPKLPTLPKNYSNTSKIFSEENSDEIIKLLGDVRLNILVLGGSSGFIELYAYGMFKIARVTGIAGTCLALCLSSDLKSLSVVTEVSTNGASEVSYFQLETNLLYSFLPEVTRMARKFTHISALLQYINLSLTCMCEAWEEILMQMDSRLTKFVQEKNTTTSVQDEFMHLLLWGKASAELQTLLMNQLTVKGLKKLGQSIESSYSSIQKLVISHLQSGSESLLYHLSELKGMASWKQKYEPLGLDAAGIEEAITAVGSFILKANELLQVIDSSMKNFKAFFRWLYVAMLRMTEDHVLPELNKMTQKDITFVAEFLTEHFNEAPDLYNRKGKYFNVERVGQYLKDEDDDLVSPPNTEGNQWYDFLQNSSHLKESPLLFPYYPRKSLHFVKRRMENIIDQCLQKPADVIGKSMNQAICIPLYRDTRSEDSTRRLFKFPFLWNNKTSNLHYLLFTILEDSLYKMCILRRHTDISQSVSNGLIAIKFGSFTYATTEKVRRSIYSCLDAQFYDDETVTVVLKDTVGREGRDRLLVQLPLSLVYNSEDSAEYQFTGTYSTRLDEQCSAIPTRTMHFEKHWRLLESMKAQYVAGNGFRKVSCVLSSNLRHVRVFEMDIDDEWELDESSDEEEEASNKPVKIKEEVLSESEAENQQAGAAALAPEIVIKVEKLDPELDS
UniProt Q9UJX4: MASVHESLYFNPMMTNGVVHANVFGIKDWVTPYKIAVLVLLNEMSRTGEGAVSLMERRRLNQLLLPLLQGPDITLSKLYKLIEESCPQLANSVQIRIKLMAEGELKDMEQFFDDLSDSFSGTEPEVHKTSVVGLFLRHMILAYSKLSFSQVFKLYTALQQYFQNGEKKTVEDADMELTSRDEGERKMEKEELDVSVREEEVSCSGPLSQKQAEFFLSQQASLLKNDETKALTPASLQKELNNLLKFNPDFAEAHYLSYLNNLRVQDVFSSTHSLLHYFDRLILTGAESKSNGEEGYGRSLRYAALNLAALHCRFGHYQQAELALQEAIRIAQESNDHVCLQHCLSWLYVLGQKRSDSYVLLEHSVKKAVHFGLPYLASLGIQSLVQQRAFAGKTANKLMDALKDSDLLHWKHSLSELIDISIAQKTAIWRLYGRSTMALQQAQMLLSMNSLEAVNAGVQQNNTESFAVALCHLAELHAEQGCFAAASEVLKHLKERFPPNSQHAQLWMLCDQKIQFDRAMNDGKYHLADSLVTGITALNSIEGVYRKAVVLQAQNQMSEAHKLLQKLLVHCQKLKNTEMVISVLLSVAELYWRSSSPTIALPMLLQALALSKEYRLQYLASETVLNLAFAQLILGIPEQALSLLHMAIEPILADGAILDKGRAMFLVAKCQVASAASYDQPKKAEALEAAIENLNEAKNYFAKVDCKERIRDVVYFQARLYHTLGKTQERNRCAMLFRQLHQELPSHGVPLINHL
UniProt Q9H1A4: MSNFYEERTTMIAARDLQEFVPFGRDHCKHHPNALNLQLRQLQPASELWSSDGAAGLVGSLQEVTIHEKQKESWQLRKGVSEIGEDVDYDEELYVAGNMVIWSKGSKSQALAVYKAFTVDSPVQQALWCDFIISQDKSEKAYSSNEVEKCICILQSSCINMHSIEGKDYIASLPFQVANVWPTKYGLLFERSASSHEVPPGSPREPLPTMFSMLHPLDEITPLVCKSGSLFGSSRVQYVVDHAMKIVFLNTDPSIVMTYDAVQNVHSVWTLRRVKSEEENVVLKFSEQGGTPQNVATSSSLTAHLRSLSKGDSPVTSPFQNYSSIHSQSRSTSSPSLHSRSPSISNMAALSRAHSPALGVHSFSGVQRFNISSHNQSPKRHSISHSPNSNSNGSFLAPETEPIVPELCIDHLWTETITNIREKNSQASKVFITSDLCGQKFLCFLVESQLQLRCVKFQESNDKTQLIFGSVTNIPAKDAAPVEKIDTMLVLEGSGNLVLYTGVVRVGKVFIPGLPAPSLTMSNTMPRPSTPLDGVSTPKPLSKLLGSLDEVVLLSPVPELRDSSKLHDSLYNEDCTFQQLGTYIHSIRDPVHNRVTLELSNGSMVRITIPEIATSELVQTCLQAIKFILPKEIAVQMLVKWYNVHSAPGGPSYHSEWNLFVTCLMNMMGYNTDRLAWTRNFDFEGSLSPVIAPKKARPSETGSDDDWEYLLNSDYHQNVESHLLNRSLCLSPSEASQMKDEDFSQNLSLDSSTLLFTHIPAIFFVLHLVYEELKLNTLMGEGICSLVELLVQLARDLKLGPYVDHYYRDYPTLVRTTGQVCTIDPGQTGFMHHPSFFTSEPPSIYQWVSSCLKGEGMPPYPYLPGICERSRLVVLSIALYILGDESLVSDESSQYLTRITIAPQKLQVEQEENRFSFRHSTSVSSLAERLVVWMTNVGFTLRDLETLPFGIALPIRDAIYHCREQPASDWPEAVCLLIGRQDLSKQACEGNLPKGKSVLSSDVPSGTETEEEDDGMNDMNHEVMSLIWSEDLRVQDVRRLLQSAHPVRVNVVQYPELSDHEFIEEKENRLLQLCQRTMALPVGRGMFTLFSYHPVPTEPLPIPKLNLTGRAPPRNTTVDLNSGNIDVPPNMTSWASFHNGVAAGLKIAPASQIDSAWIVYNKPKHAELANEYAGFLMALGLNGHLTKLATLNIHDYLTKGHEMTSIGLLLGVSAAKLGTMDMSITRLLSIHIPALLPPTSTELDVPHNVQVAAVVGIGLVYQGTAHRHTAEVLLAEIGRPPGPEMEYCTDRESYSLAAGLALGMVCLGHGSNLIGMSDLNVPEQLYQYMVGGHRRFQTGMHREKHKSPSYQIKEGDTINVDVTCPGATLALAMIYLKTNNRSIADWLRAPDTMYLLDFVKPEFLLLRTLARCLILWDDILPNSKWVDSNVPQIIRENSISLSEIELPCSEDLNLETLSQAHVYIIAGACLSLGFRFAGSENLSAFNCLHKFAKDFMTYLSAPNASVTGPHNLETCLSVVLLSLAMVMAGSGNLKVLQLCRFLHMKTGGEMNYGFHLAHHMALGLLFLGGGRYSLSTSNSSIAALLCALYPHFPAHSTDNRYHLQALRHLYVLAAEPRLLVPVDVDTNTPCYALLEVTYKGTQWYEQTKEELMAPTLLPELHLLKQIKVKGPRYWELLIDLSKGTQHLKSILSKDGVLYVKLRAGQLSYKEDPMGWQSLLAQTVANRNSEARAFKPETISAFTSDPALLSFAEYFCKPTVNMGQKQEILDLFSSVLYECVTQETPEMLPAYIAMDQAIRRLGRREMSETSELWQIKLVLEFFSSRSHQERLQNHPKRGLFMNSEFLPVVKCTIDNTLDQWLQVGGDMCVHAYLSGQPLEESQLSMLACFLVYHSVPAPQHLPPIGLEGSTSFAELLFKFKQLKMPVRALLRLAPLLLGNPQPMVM
UniProt Q13257: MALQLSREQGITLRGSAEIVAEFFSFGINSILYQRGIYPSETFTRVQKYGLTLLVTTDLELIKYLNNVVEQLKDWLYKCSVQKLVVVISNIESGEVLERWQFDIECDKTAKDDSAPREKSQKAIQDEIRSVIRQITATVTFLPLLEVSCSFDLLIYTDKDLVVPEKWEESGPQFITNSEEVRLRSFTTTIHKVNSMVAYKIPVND
UniProt Q5TAX3: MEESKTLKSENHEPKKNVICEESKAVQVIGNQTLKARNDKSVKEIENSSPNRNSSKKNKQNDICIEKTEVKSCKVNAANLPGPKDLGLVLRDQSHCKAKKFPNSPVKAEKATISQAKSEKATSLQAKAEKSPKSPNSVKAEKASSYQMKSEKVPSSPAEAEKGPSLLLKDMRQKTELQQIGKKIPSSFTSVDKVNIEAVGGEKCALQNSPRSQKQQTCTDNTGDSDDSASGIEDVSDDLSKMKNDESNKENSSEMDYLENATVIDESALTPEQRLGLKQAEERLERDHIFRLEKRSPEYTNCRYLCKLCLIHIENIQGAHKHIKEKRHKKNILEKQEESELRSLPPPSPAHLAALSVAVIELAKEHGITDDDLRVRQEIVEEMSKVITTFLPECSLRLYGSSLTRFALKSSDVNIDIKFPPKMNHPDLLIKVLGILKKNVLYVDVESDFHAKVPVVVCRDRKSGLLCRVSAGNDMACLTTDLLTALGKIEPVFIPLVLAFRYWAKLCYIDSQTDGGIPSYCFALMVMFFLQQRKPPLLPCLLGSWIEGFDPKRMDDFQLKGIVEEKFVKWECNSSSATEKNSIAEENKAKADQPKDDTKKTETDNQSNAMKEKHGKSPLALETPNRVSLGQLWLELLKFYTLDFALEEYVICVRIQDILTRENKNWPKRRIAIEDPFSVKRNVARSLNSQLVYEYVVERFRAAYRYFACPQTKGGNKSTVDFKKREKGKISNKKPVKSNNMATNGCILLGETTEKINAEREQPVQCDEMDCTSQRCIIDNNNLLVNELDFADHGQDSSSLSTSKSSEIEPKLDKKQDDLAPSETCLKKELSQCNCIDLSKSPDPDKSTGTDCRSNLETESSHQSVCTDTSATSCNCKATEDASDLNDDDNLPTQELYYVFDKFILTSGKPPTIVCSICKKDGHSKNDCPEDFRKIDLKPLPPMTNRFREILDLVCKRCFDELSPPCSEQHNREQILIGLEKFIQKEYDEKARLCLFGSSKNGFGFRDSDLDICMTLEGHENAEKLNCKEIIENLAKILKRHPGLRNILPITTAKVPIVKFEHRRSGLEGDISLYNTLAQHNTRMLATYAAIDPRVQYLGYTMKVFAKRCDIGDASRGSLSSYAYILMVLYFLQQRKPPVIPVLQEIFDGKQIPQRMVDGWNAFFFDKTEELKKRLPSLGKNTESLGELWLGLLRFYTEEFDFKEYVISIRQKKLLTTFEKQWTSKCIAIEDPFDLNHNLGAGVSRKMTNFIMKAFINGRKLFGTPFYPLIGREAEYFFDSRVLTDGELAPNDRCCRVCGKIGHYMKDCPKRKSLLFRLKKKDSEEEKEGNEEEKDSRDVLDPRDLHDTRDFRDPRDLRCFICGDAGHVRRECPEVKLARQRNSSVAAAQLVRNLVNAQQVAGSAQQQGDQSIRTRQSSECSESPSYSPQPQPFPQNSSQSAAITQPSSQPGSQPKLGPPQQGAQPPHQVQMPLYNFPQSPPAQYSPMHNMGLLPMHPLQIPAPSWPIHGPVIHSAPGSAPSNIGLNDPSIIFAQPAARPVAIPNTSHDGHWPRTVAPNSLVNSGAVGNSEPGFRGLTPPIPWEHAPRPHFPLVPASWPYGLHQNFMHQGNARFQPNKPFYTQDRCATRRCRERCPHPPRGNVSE

Experiments:
[1] = target: T1, HA-tagged wild-type PATL2 (human) (UniProt C9JE40); experiment: affinity purification with mass spectrometry; HA vector, HA-PATL2 or HA-PATL2 V401F/R402W transfected into 293T cells for 48 h; HA affinity beads; washes with IP lysis buffer with 250 mM NaCl; on-bead trypsin digestion; Orbitrap Eclipse
T1 sequence: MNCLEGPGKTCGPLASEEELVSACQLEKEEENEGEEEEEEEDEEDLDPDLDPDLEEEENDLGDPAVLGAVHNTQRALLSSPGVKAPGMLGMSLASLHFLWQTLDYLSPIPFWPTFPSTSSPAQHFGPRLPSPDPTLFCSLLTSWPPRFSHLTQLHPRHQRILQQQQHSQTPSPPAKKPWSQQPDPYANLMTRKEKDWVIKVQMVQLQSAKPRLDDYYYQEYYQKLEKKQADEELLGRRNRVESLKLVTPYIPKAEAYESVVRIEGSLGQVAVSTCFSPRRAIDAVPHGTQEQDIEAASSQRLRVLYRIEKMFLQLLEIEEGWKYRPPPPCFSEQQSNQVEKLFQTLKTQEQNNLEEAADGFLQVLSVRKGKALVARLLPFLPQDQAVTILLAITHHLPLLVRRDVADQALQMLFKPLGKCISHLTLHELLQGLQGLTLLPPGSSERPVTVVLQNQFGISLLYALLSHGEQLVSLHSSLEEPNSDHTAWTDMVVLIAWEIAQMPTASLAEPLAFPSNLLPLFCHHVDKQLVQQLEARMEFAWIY

[2] = target: T1, HA-tagged wild-type PATL2 (human); experiment: as above; remark: listed apart in the source

ANAPC4 (endogenous) (from UniProt Q9UJX5 1-808)
binding [1]: binds

ANAPC5 (endogenous) (from UniProt Q9UJX4 1-755)
binding [1]: binds

APC1 (endogenous) (from UniProt Q9H1A4 1-1944)
binding [1]: binds

MAD2L1 (endogenous) (from UniProt Q13257 1-205)
binding [1]: binds

TUT4 (endogenous) (from UniProt Q5TAX3 1-1644) (enzyme)
binding [1]: binds

B1: TUT7 (endogenous, 293T cells) (enzyme, UniProt Q5VYS8 1-1495)
chain: MGDTAKPYFVKRTKDRGTMDDDDFRRGHPQQDYLIIDDHAKGHGSKMEKGLQKKKITPGNYGNTPRKGPCAVSSNPYAFKNPIYSQPAWMNDSHKDQSKRWLSDEHTGNSDNWREFKPGPRIPVINRQRKDSFQENEDGYRWQDTRGCRTVRRLFHKDLTSLETTSEMEAGSPENKKQRSRPRKPRKTRNEENEQDGDLEGPVIDESVLSTKELLGLQQAEERLKRDCIDRLKRRPRNYPTAKYTCRLCDVLIESIAFAHKHIKEKRHKKNIKEKQEEELLTTLPPPTPSQINAVGIAIDKVVQEFGLHNENLEQRLEIKRIMENVFQHKLPDCSLRLYGSSCSRLGFKNSDVNIDIQFPAIMSQPDVLLLVQECLKNSDSFIDVDADFHARVPVVVCREKQSGLLCKVSAGNENACLTTKHLTALGKLEPKLVPLVIAFRYWAKLCSIDRPEEGGLPPYVFALMAIFFLQQRKEPLLPVYLGSWIEGFSLSKLGNFNLQDIEKDVVIWEHTDSAAGDTGITKEEAPRETPIKRGQVSLILDVKHQPSVPVGQLWVELLRFYALEFNLADLVISIRVKELVSRELKDWPKKRIAIEDPYSVKRNVARTLNSQPVFEYILHCLRTTYKYFALPHKITKSSLLKPLNAITCISEHSKEVINHHPDVQTKDDKLKNSVLAQGPGATSSAANTCKVQPLTLKETAESFGSPPKEEMGNEHISVHPENSDCIQADVNSDDYKGDKVYHPETGRKNEKEKVGRKGKHLLTVDQKRGEHVVCGSTRNNESESTLDLEGFQNPTAKECEGLATLDNKADLDGESTEGTEELEDSLNHFTHSVQGQTSEMIPSDEEEEDDEEEEEEEEPRLTINQREDEDGMANEDELDNTYTGSGDEDALSEEDDELGEAAKYEDVKECGKHVERALLVELNKISLKEENVCEEKNSPVDQSDFFYEFSKLIFTKGKSPTVVCSLCKREGHLKKDCPEDFKRIQLEPLPPLTPKFLNILDQVCIQCYKDFSPTIIEDQAREHIRQNLESFIRQDFPGTKLSLFGSSKNGFGFKQSDLDVCMTINGLETAEGLDCVRTIEELARVLRKHSGLRNILPITTAKVPIVKFFHLRSGLEVDISLYNTLALHNTRLLSAYSAIDPRVKYLCYTMKVFTKMCDIGDASRGSLSSYAYTLMVLYFLQQRNPPVIPVLQEIYKGEKKPEIFVDGWNIYFFDQIDELPTYWSECGKNTESVGQLWLGLLRFYTEEFDFKEHVISIRRKSLLTTFKKQWTSKYIVIEDPFDLNHNLGAGLSRKMTNFIMKAFINGRRVFGIPVKGFPKDYPSKMEYFFDPDVLTEGELAPNDRCCRICGKIGHFMKDCPMRRKVRRRRDQEDALNQRYPENKEKRSKEDKEIHNKYTEREVSTKEDKPIQCTPQKAKPMRAAADLGREKILRPPVEKWKRQDDKDLREKRCFICGREGHIKKECPQFKGSSGSLSSKYMTQGKASAKRTQQES
binding [2]: binds
